We go through 39 compounds from PubChem BioAssay AID2685 (National Center for Advancing Translational Sciences (NCATS), 2010).

Some of the results follow. These are further read-outs of the screen, such as a control signal, another cell line or another target. No call is given for them. The list favours compounds with an active or inconclusive main result. The note in brackets gives the kind of curve behind each potency; many fits are weak.

The assay can be described thus: qHTS Assay for Lipid Storage Modulators in Drosophila S3 Cells.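 For cell number change: cells counted by Cell Tracker Red CMTPX staining in the red channel.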 Conditions: BODIPY lipid droplet fluorescence, 18-24 h; for cell number change: measured here: cell count max response, cells fed with added oleic acid. Summed up: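 Laser-scanning cytometry quantifies lipid droplet accumulation (500–530 nm total intensity; droplet/cell object ratio) in oleic acid-fed (400 uM added) Drosophila S3 cells treated with a concentration series. 20 uM Triacsin C defined 100% inhibition.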
(qHTS replaces the single test concentration by a dilution series.)

Setting [1] is: measured here: cell number channel AC50, cells fed with added oleic acid.
Where [2] appears, read: measured here: lipid fluorescence (Fed channel) AC50, cells fed with added oleic acid.

What is called AC50 is the concentration giving half of the maximal activity seen. For the compound `Cc1ccc(SCCC(=O)N(C)C)cc1`, the cell number change is -21.6%. Further, under setting [1], the AC50 is 6.51 µM [falling, single point]. Besides, the AC50 under setting [2] is 3.26 µM [falling, full curve].
`C/C(=N\NC(=O)Cc1csc(N2CCOCC2)n1)c1ccc(Cl)c(Cl)c1`: under setting [1], the AC50 was 6.51 µM [rising, single point].
With `Cc1ccc(N2C(=O)CC(C)(C)CC2=O)cc1Cl`, the cell number change was 4.56%. Also, the AC50 under setting [2] is 29.1 µM [rising, single point].
`Cc1oc(-c2cccs2)[n+]([O-])c1C`: the cell number change amounted to 39.1%. The AC50 under setting [1] was 29.1 µM [rising, single point].
Turning to `Cc1ccc(-n2[nH]c(C)c(/C=N/n3c(C)nc4ccccc4c3=O)c2=O)cc1`, the cell number change was found to be 85%. Moreover, the concentration at half-maximal activity (AC50) under setting [1] was 5.8 µM [rising, full curve].
As to `CC(Sc1n[nH]c(-c2cccs2)n1)C(=O)Nc1ccccc1F` (configuration not stated), the cell number change amounted to 0.774%. For the same compound, the AC50 under setting [2] was 3.66 µM [falling, single point].
Regarding `Cc1c(OC(C)C(=O)NCC(O)c2ccccc2)ccc2c3c(c(=O)oc12)CCCC3` (configuration not stated), the AC50 under setting [2] is 29.1 µM [falling, single point].
As for `Clc1ccc(Cc2nnc(-c3ccccc3Br)o2)cc1`, the cell number change was -0.553%.
In the case of `CCOC(=O)c1c(C)[nH]c2c1-c1ccccc1C(=O)C2=O`, the cell number change is -27.8%. Under setting [1], the AC50 was 4.11 µM [falling, full curve, poor fit]. Besides, the AC50 under setting [2] is 5.17 µM [falling, partial curve].
Turning to `COc1ccccc1-n1c(C)nc2cc(C(=O)NCC3CCCO3)ccc21` (configuration not stated), the cell number change was 63%. In addition, the AC50 under setting [1] is 29.1 µM [rising, single point]. In addition, the AC50 under setting [2] was 29.1 µM [rising, single point].
Consider `c1ccc(CCC2=NCCn3cccc32)cc1`, for which the cell number change was -19.1%.
As to `C/C(=N\NC(=O)c1ccccc1)c1ccc(N2CCCCC2)cc1`, the cell number change amounted to 9.94%. Moreover, the AC50 under setting [2] is 0.58 µM [rising, single point].
With `Cc1c(C(=O)N2CCc3ccccc3C2)oc2ccc(S(=O)(=O)N3CC(C)CC(C)C3)cc12` (configuration not stated), the cell number change is -13.8%.
For the compound `COc1ccc(CCNC(=O)CSc2nc3ccccc3o2)cc1OC`, the cell number change was -8.16%. The half-maximal activity concentration (AC50) under setting [1] was 0.092 µM [falling, full curve]. In addition, under setting [2], the AC50 is 0.82 µM [falling, partial curve, poor fit].
For `O=C(NCC1CCCO1)C1CCCCN1S(=O)(=O)c1ccc(F)cc1` (configuration not stated), the cell number change stood at 6.29%. The AC50 under setting [2] is 25.9 µM [falling, partial curve].
Regarding `O=C(NC1CCCN(Cc2ccc(Cl)cc2)C1)C1CCC1` (configuration not stated), the cell number change was -18.4%.
For `O=C1OC(/C=C/c2ccc(Cl)cc2)=NC/1=C/c1ccco1`, the cell number change was 30%. Moreover, the AC50 under setting [1] is 0.411 µM [rising, full curve]. Also, under setting [2], the AC50 was 18.4 µM [falling, partial curve].
In the case of `N/C(Cn1cncn1)=N\OC(=O)c1ccc(Cl)cc1`, the cell number change was -10.2%.
Regarding `COC(=O)c1ccccc1NC(=O)CN(C)S(=O)(=O)c1ccc(OC)c(C)c1`, the cell number change amounted to 2.18%. For the same compound, the AC50 under setting [2] is 9.2 µM [rising, partial curve].
Turning to `O=C(Cn1c(=O)n(Cc2ccco2)c(=O)c2c3c(sc21)CCCCC3)c1ccccc1`, the cell number change was found to be 10.5%. The AC50 under setting [2] is 20.6 µM [rising, partial curve, poor fit].
Regarding `CCOC(=O)C1CCN(C(=O)CCc2c(C)nc3ncnn3c2C)CC1`, the cell number change was 15.5%. For the same compound, under setting [2], the concentration at half-maximal activity (AC50) is 0.116 µM [falling, full curve, poor fit].
Consider `C=CCn1c(SCC(=O)N2CC(C)OC(C)C2)nnc1-c1ccncc1` (configuration not stated), for which the cell number change was found to be 10.3%. Also, under setting [2], the AC50 was 0.116 µM [falling, full curve, poor fit].
For the compound `COc1ccc(-c2noc(C(=O)NCc3ccccc3Cl)n2)cc1OC`, the cell number change turned out to be 15%.
In the case of `N#Cc1c(-c2ccccc2)nc(SCC(=O)Nc2nnc(C(F)(F)F)s2)[nH]c1=O`, the cell number change was -36.6%. Under setting [1], the AC50 was 1.3 µM [rising, full curve].
Regarding `CC1CC(C)CN(S(=O)(=O)c2ccc(NC(=S)NC(=O)c3ccccc3)cc2)C1` (configuration not stated), the cell number change amounted to 11.9%. Moreover, the AC50 under setting [2] is 13 µM [rising, partial curve, poor fit].
As to `Cc1ccc(S(=O)(=O)N(C)C)cc1NC(=O)c1ccncc1`, the cell number change amounted to 25.6%. Besides, under setting [2], the AC50 is 0.58 µM [falling, single point].
Regarding `CCN(CC)c1ccc(NC(=O)C2CC(=O)N(Cc3ccccc3)C2)cc1` (configuration not stated), the cell number change stood at 39.8%. For the same compound, the AC50 under setting [1] was 23.1 µM [rising, partial curve, poor fit].
Take `CCOC(=O)C1C(=O)NC(c2ccccc2)=NC1c1ccc(Cl)cc1` (configuration not stated): the cell number change is 29%. Also, the AC50 under setting [1] is 4.11 µM [rising, full curve, poor fit]. In addition, the AC50 under setting [2] is 3.66 µM [rising, single point].
As for `CCOc1ccc2c(c1)C(c1ccccc1)=NNC(c1ccccc1)=N2`, the cell number change was -32%. Moreover, under setting [1], the AC50 was 18.4 µM [falling, single point]. Under setting [2], the AC50 is 11.6 µM [falling, partial curve].
Turning to `C/C(=N\OCC(=O)OCC(=O)N(C)c1ccccc1)c1ccc2c(c1)OCO2`, the cell number change is -14.8%. Also, the AC50 under setting [2] was 18.4 µM [falling, single point].
With `CCNc1cc(=O)n(C)c(=O)n1C`, the cell number change was -18.9%. Also, under setting [1], the AC50 was 0.13 µM [falling, full curve, poor fit]. The AC50 under setting [2] was 0.517 µM [falling, full curve, poor fit].
As for `Cc1ccc2cc3c(NC(=O)c4ccco4)nn(CC(C)C)c3nc2c1`, the cell number change was -38.7%. Moreover, the AC50 under setting [1] is 11.6 µM [falling, partial curve]. The AC50 under setting [2] was 16.4 µM [falling, single point].
For `COC(=O)c1nnn(-c2ccc(Cl)c(Cl)c2)c1C(=O)OC`, the cell number change was 3.64%.
As for `CN(c1ccccc1)S(=O)(=O)c1cccc(NC(=O)c2cncc(Br)c2)c1`, the cell number change is -5.3%. The AC50 under setting [2] is 4.11 µM [rising, single point].
Regarding `CN1CCN(C(=O)c2ccc3c(Cl)c4c(nc3c2)CCCC4)CC1`, the cell number change is -87.7%.
On to `N=c1c(C(=O)NC2CCCC2)cc2c(=O)n3ccccc3nc2n1CCCN1CCOCC1`, for which the cell number change was 7.83%. The half-maximal activity concentration (AC50) under setting [2] is 29.1 µM [falling, single point].
For `Cn1cnc2c1c(=O)n(CC(O)CO)c(=O)n2C` (configuration not stated), the cell number change was -16.5%. In addition, the AC50 under setting [2] was 0.517 µM [falling, partial curve].
In the case of `O=S(=O)(c1cccc(COc2c(Cl)cccc2Cl)c1)N1CCOCC1`, the cell number change is -37.8%. The AC50 under setting [1] was 0.00411 µM [falling, full curve, poor fit].
Regarding `COCCNC(=O)CN1CCC(NC(=O)Nc2ccccc2)CC1`, the cell number change came out at 1.45%. Further, under setting [2], the AC50 was 23.1 µM [falling, single point].
